Reference: PubChem BioAssay AID1259305 (Sanger Institute, 2017)
Aim: 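Retest kinome siRNA screen hits for synergy with drugs in DIFI cells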 (follow-up of hits). System: human DIFI colorectal cancer cells. Reagents: single siRNA against human genes. Conditions: BYL719 1 µM, cetuximab 5 µg/ml or trametinib 10 nM, or DMSO vehicle, added one day after transfection; exposure time not given. Measured: 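Cell survival as a ratio to a non-targeting siRNA control pool, mean of replicates; per-drug synergy scores set knock-down plus drug against each alone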. Direction: synergy score with BYL719 and synergy score with Cetuximab and synergy score with Trametinib: higher = stronger combined killing than expected. Hit rule: 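An siRNA counts as synergistic (synthetic lethal) when its synergy score tops 0.10 for at least one of the three drugs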.
Shown is an unselected part of 160 deposited reagents. Of all reagents, 96 (60%) got an active call. 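Each call covers one siRNA sequence in one cell line only; gene-level confirmation needs agreement across siRNAs and lines.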 Entries without a mark were called inactive. Reagents against one gene are numbered here. Not all columns of the deposit are shown. Reagent sequences are not shown. The record does not give: the amount of reagent, the time to read-out.

gene symbol	reagent	synergy score with BYL719	synergy score with Cetuximab	synergy score with Trametinib
MAPK4 (mitogen-activated protein kinase 4)	1	0.0211	0.0394	-0.0394
MAPK4 (mitogen-activated protein kinase 4)	2	0.0559	0.0287	0.0918
MAPK4 (mitogen-activated protein kinase 4)	3	-0.00201	0.0844	0.0751
MAPK4 (mitogen-activated protein kinase 4)	4	0.077	0.0162	0.0607
PINK1 (PTEN induced kinase 1)	1	-0.244	0.0396	-0.0549
PINK1 (PTEN induced kinase 1)	2	0.179 (active)	0.189	0.262
PINK1 (PTEN induced kinase 1)	3	0.195 (active)	0.147	0.236
PINK1 (PTEN induced kinase 1)	4	0.011 (active)	0.0742	0.159
PIK3CA	1	0.00246	0.0535	0.095
PIK3CA	2	-0.00969 (active)	0.119	0.278
PIK3CA	3	-0.0869 (active)	0.12	0.321
PIK3CA	4	-0.135 (active)	0.116	0.266
CSNK2A2 (casein kinase 2 alpha 2)	1	-0.188	0.0489	0.0173
CSNK2A2 (casein kinase 2 alpha 2)	2	-0.0415	0.0299	0.0489
CSNK2A2 (casein kinase 2 alpha 2)	3	-0.0443	-0.00802	-0.0141
CSNK2A2 (casein kinase 2 alpha 2)	4	0.0526 (active)	0.07	0.13
